Columns and labels:
CEM-SS cells = assay: Cytotoxicity assay (growth inhibition, Coulter counter); conditions: Homo sapiens, 48 h
Procedure: […] Each result is the mean of one representative experiment performed in duplicate. The cultures with the purine nucleosides adenosine, 2′-deoxyadenosine, and arabinosyladenine contained 5 μM deoxycoformycin to inhibit adenosine deaminase activity.
(§1) All assays were performed in 24-well tissue culture plates (Costar, Cambridge, Ma.). […] At the end of the incubation, the cell concentrations, sizes, and volumes were counted in a Coulter counter (Coulter Electronics, Hialeah. Fla.).

CEM-r1 cells = assay: as above
Procedure: Selection for PMEA resistance was carried out by exposing CEM-SS cells in culture to increasing concentrations of PMEA, over several months.
The IC50 values were obtained after 2 days of culture. Each result is the mean of one representative experiment performed in duplicate. The cultures with the purine nucleosides adenosine, 2′-deoxyadenosine, and arabinosyladenine contained 5 μM deoxycoformycin to inhibit adenosine deaminase activity.
as §1

Question: How did the IC50 (CEM-SS cells) turn out when `COc1cc2c(c(OC)c1OC)-c1ccc(OC)c(=O)cc1[C@@H](NC(C)=O)CC2` [Colchicine] was run?
Answer: 14 nM

Question: What about the “Relative Resistance” value (CEM-r1 cells; CEM-r1 vs CEM-SS (Table 3)) of the same molecule?
Answer: ˜1

Question: And the IC50 (CEM-r1 cells; Homo sapiens, 48 h)?
Answer: 13 nM

From US6759238B1, “Multidrug resistance associated proteins and uses thereof” (priority 1999, dated 2004)
